Experimental data reported in the supplement of paper PMC3334620.
Over roughly 33,000 sequences, “E-score (-0.5 to 0.5)” has its median near -0.016; the highest 2% begin near 0.3. Some of the results follow.

The sequences below were run against T1, Yer184c (UniProt P39961) (assay: PBM E-score (8-mer binding enrichment) (E-score (-0.5 to 0.5)); higher = stronger / more preferred TF binding). Conditions: protein concentration: 100 nM; construct: GST-full length.
T1 sequence: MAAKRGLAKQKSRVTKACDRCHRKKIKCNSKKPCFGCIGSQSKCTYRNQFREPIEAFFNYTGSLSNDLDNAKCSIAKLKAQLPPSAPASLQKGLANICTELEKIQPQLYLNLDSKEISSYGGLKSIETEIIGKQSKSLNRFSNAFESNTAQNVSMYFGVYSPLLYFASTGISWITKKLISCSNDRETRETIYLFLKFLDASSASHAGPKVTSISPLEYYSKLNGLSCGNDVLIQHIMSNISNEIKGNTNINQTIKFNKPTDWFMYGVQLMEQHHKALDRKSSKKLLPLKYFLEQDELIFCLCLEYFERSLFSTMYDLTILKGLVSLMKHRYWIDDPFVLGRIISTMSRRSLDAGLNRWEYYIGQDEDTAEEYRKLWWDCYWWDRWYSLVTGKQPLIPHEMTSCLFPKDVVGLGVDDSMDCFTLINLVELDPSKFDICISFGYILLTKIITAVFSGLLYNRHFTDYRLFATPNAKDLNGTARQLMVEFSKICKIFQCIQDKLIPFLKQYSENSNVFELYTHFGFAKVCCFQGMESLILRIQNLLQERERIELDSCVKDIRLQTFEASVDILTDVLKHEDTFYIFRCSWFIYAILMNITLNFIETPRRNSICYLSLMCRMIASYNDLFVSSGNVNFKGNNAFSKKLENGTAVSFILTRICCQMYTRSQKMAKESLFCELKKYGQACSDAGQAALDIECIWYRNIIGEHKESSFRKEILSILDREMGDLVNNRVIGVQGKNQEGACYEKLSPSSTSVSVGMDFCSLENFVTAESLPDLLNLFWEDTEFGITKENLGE
Outline: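 Universal all-10-mer Agilent arrays, double-stranded by primer extension on fresh or once-stripped slides, were probed with about 100-200 nM GST-tagged yeast transcription factors made by PURExpress. Fluorescent anti-GST detected bound protein, and masliner normalised the scans. E-scores from the Universal PBM Analysis Suite were given to each ungapped eight-base word pooled with its reverse complement.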

| Sequence | PBM E-score |
| --- | --- |
| GAACAGTA | 0.246 |
| ACCAGGGT | -0.265 |
| CAGAATGG | 0.0505 |
| GTTATACA | 0.129 |
| CCGGCCCC | -0.00948 |
| CGCAAGGC | 0.0502 |
| ATCCTACA | -0.089 |
| CGGAGCAC | 0.102 |
| ATCATGCG | 0.0102 |
| ATTCAAAG | 0.0128 |
| ACGGGGAG | -0.108 |
| CGTAACAG | -0.105 |
| CGCGGGTC | 0.232 |
| CAACGACA | 0.00773 |
| CCTTAGTA | -0.0225 |
| AACTCCGC | -0.0142 |
| CAGACCTA | -0.149 |
| AGTTCGAG | -0.00888 |
| AAATTCAC | 0.175 |
| GATAAATA | 0.186 |
| TGGTTGAA | -0.0916 |
| GGCTAAAC | -0.0419 |
| CACCGAAG | 0.192 |
| ATGATCCC | -0.00892 |
| AACGTCAC | -0.0992 |

| Sequence | PBM E-score |
| --- | --- |
| GGGCGCAA | -0.076 |
| GGATTATA | 0.159 |
| TAGAGAGA | -0.0595 |
| CCCCAGGG | -0.297 |
| ACAAATCA | -0.0458 |
| AGAGATGG | 0.0255 |
| GTGATAAC | -0.0196 |
| GGATCACA | 0.0283 |
| CACCGCCA | -0.223 |
| GCGTCGCC | -0.114 |
| CAATTGCC | 0.025 |
| ATGCCCAC | -0.0514 |
| CGGTTCTA | 0.125 |
| CTCCAACC | 0.0803 |
| CTCGAAAA | -0.0323 |
| CAAAAACG | 0.128 |
| CGGGGGCA | -0.344 |
| CAACCAAG | -0.0924 |
| GACGAATC | 0.0978 |
| AGTAACAG | 0.117 |
| AAGCCCGG | 0.294 |
| CGCTCATA | -0.11 |
| AGATACCC | 0.108 |
| ACATGAGC | -0.0914 |
| GAACGATA | -0.00864 |

| Sequence | PBM E-score |
| --- | --- |
| CAGACCCC | -0.313 |
| ACCTCTGG | -0.287 |
| AAACCCTA | -0.0932 |
| CACTAATG | -0.00249 |
| ACCAGTCT | -0.149 |
| AAGTATAC | 0.0725 |
| GTGACGCA | -0.0588 |
| ACGTCTGG | -0.0611 |
| ACTCCCCC | -0.285 |
| ACTTGAAC | 0.0776 |
| ACCGGTTG | 0.285 |
| CGTCTCTC | 0.108 |
| ACTCTTCA | 0.0248 |
| GTCGAATA | -0.0617 |
| CATAATGG | -0.301 |
| ATACGCTA | 0.0126 |
| AGACGGAG | 0.0315 |
| GATATGAA | 0.156 |
| CACAGCGA | 0.0717 |
| CCGTTACC | 0.0881 |
| ATTATGTA | 0.183 |
| ATCTTAGA | 0.15 |
| CTCTGCAA | 0.0889 |
| ATTCCTAA | 0.134 |
| TGTCATAA | 0.0101 |

| Sequence | PBM E-score |
| --- | --- |
| GCGACTCC | -0.276 |
| GATCAAAA | 0.157 |
| AAACGAAG | -0.0517 |
| CGACGTTC | -0.244 |
| GTGCGCCA | -0.118 |
| GTAAAAAA | 0.17 |
| TGGCTAAA | 0.0133 |
| AACTCTTG | -0.125 |
| AGTCTGGG | -0.227 |
| AACACGGC | 0.132 |
| AGTCGATA | -0.133 |
| AGATGGGA | -0.194 |
| AGCAATGC | 0.0377 |
| AGACAGAT | 0.0536 |
| ATAAGGCC | -0.0371 |
| AGTCGTTA | -0.148 |
| ACGGTGTA | -0.0851 |
| CGTCCCCC | -0.275 |
| ATAATCGG | 0.299 |
| ATACCATC | -0.0833 |
| CCTTGTTA | 0.00089 |
| ATCTGATG | -0.168 |
| GCGGAAAC | 0.0908 |
| ACAGTGCG | -0.236 |
| GAGCGATA | -0.084 |

| Sequence | PBM E-score |
| --- | --- |
| ACTCCTCG | 0.0636 |
| GCGCACAA | 0.17 |
| AAGAATAT | -0.00876 |
| CTAGTTGC | -0.00127 |
| ACGAGCGA | -0.107 |
| GACTACAA | -0.114 |
| CGCAGATA | 0.0637 |
| ATCTCGAC | -0.0837 |
| GAATGGCA | 0.135 |
| CAGGAGGA | -0.251 |
| GTATCTAA | 0.171 |
| AGGCAGTA | -0.153 |
| TAACGAAA | 0.239 |
| ACAAAAAC | 0.238 |
| GAACATAC | 0.191 |
| GGCAACAC | 0.0425 |
| TCCGTACA | 0.219 |
| CACAAGCA | -0.0822 |
| GGGCAACA | -0.0183 |
| GATGATAA | 0.152 |
| ATTCAAGG | -0.194 |
| AACTGAGA | 0.0276 |
| CCCAATCG | -0.0948 |
| ACCAGCGT | -0.175 |
| AGCGTACA | -0.142 |

| Sequence | PBM E-score |
| --- | --- |
| ATCATGGG | -0.124 |
| CCCCCGAG | -0.316 |
| AGGCCCGG | 0.0336 |
| AGAAGTTA | 0.00342 |
| AAGGGCCC | -0.28 |
| ATCACGCG | 0.136 |
| AAAAGGTG | -0.0762 |
| ATACTAGG | 0.00209 |
| AGAGACAT | -0.0279 |
| AGTGACGA | 0.0473 |
| CACGTCCG | -0.0881 |
| AGAGTTTA | 0.175 |
| GGGGTTAA | -0.125 |
| CGGACGGA | 0.189 |
| AACCGGAT | 0.366 |
| ATGTTCCG | 0.347 |
| GATCATCC | 0.117 |
| ACAATTAG | -0.0226 |
| CCCGCACC | -0.276 |
| CTCAAATA | 0.0767 |
| GGTAAGAC | 0.0174 |
| ACAAGGCC | -0.189 |
| CTGATTTA | 0.139 |
| AGCTGGAT | -0.0937 |
| CTTATACA | 0.0241 |

| Sequence | PBM E-score |
| --- | --- |
| ACCAATCC | 0.0831 |
| AAACTGGT | -0.00684 |
| GACACTGA | 0.107 |
| CCTTGAAC | -0.0919 |
| GAGTGTAC | -0.121 |
| GTAGCACA | -0.144 |
| AAAAGACC | -0.107 |
| CATGCAAC | -0.00764 |
| CCAGCGAC | -0.258 |
| CTAATAAC | 0.0535 |
| AGTATAGG | -0.0669 |
| CTTGCATC | -0.191 |
| ATGCCGCC | 0.0156 |
| CTCGCGCC | -0.0106 |
| AGCGACTA | -0.0667 |
| CAAGGCTA | 0.0654 |
| ACATCCTA | -0.194 |
| ACTCTTTA | -0.0985 |
| AATGCGTA | -0.0408 |
| GTGCGTGA | 0.0804 |
| AGGTTAGG | -0.131 |
| AACAAAAA | 0.228 |
